PubChem BioAssay AID1347076 (National Center for Advancing Translational Sciences (NCATS), 2019)
In all, about 400,000 compounds went through this assay and about 13,000 (3.2%) were called active. The shares of active, inactive and inconclusive entries below differ from those in the screen. Calls come from the whole dose curve; as a rule, active = well fitted cell-killing curve with a large enough effect; inconclusive = small, poorly fitted or top-dose-only effect, or effect the other way; inactive = flat fitted curve, though single readings scatter. Potencies beside an inconclusive call are fits to weak or partial responses and may not hold up.

Experiment: qHTS assay for MDR1-selective chemotherapeutics: Primary screen using the drug-selected MDR subline cells KB-V1; note: nearly all actives have a fitted effect of over 60% in size
Settings: KB-V1 MDR cells viability, CellTiter-Glo, 72 h; activity change, negative = cytotoxicity: at 46.1 µM (top of the series)
In short: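 Compound-treated KB-V1 multidrug-resistant cells, 72 h, 37 degrees C; viability by CellTiter-Glo. Fitted qHTS curves give the values.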
% is set by controls: 0 for no effect and ±100 for the full control effect; potency is the fitted concentration of half-maximal effect.

Row | SMILES | Potency | activity change, negative = cytotoxicity
1 | CS(=O)(=O)NNC(=O)Cn1nnc(-c2ccc(OCc3ccccc3Cl)cc2)n1 | inactive | 
2 | COc1ccc(CNC(=O)c2cn(Cc3ccccc3F)c(=O)s2)cc1 | inconclusive: 23.1 µM [cytotoxic, single point] | 
3 | CC1=NN(C(N)=S)C(=O)C1N=Nc1ccc(Br)cc1 (stereo unspecified) | inconclusive: 23.1 µM [cytotoxic, single point] | 
4 | c1cncc(-c2ccnc3ncnn23)c1 | inconclusive: 16.4 µM [rising, partial curve] | 
5 | CCc1cc(C(=O)Cc2ccc(F)cc2)c(O)cc1O | active: 16.4 µM | 
6 | CN(C)c1ncc(S(=O)(=O)c2ccccc2)c(-c2ccc(Cl)cc2Cl)n1 | active: 14.6 µM | 
7 | COc1ccc(C(C)=O)cc1CSc1nnc(-c2ccc(Cl)cc2)n1-c1ccccc1 | active: 14.6 µM | 
8 | Nc1ccc(C(=O)N/N=C\c2ccc(OC(=O)c3ccccc3Cl)cc2)cc1 | inactive | 
9 | Cc1cc(NC(=O)c2noc3c2CCCC3)nn1Cc1ccc(Cl)cc1 | active: 18.4 µM | 
10 | CC(=O)Nc1ccc(CN2CCc3c([nH]c4ccccc34)C2C(C)(C)C)cc1 (stereo unspecified) | inactive | 
11 | CCOC(=O)CSc1nc2cc(OC)c(OC)cc2cc1C#N | inconclusive: 16.4 µM [rising, partial curve] | 
12 | COCCCNC(=O)C[C@@H]1C[C@@]2(C(=O)OC)CC(C)(C)CC=C2N(CCc2ccc(OC)c(OC)c2)C1=O | inconclusive: 11.6 µM [cytotoxic, partial curve, poor fit] | 
13 | O=C(NNc1nc2c(F)cccc2s1)c1ccc(F)cc1 | inactive | 
14 | Cc1ccccc1CN1CCC(CNC(=O)C2CCCN(c3ncnc4c3nc3n4CCCCC3)C2)CC1 (stereo unspecified) | inconclusive: 18.4 µM [rising, single point] | 
15 | C=CCN1C(c2ccccc2)=CS/C1=C(/C#N)c1nnc(N2CCOCC2)n1-c1ccccc1 | inactive | 
16 | COC(=O)[C@H](Cc1c[nH]c2ccccc12)NC(=O)Cc1c[nH]c2ccccc12 | inconclusive: 10.3 µM [rising, partial curve, poor fit] | 
17 | COc1ccc(CNC(=O)Cn2c(=O)oc3cc(S(=O)(=O)NCc4ccccc4)ccc32)cc1 | inactive | 
18 | CCCn1cnc2cc(NCc3cccc(OC)c3)ccc21 | inconclusive: 20.6 µM [cytotoxic, partial curve, poor fit] | 
19 | CCOC(=O)N1CCC(N2Cc3cccc(C(=O)Nc4ccc(OC)c(OC)c4)c3C2=O)CC1 | inconclusive: 29.1 µM [cytotoxic, single point] | 
20 | N/N=C/C(=N\Nc1ccc(Cl)cc1)C(=O)c1ccncc1 | inactive | 
21 | CC1CCCCC1NC(=O)CSc1nnc(-c2ccncc2)n1CCCN(C)C (stereo unspecified) | inconclusive: 29.1 µM [rising, partial curve, poor fit] | 
22 | COCC(C)n1c(SCc2ccc(OC)c(F)c2)nc2ccccc2c1=O (stereo unspecified) | inconclusive: 9.2 µM [cytotoxic, partial curve] | 
23 | O=C(Nc1ccc(S(=O)(=O)N2CCc3ccccc32)cc1)C(F)(F)F |  | inconclusive: 31.5%
24 | COc1ccc(NC(=O)c2cc3c(-c4ccccc4F)nn(C)c3s2)c(OC)c1 | inconclusive: 18.4 µM [cytotoxic, single point] | 

Row | SMILES | Potency | activity change, negative = cytotoxicity
25 | CC1CCN(C2=NC(=O)/C(=C/c3ccc(O)cc3)S2)CC1 | inconclusive: 29.1 µM [cytotoxic, single point] | 
26 | COC(=O)[C@]12CCCCC=C1N(Cc1ccccc1)C(=O)[C@H](CC(=O)N1CCOCC1)C2 | inconclusive: 14.6 µM [cytotoxic, partial curve, poor fit] | 
27 | O=C(NC1=NCCS1)c1ccc(Cl)c(S(=O)(=O)N2CCCCC2)c1 | inconclusive: 29.1 µM [cytotoxic, single point] | 
28 | COc1cc2c(cc1OC)CN(CC(=O)Nc1ccc(C)c(C)c1)CC2 | inconclusive: 9.2 µM [cytotoxic, partial curve, poor fit] | 
29 | Cc1ccc(S(=O)(=O)N2CCOC23CCN(C(=O)c2cc(Cl)ccc2Cl)CC3)cc1 | inactive | 
30 | O=C(NCCSc1c[nH]c2ccccc12)c1ccc(Br)o1 | inconclusive: 5.17 µM [rising, partial curve, poor fit] | 
31 | CCN(C[C@H]1N[C@@](C)(C(=O)OC)[C@H]2C(=O)N(Cc3ccccc3)C(=O)[C@@H]12)C(=O)Nc1ccc(C)cc1 | inactive | 
32 | CN1CCN(c2ccc(NC(=O)c3ccc(C(F)(F)F)cc3)cn2)CC1 | inconclusive: 29.1 µM [cytotoxic, single point] | 
33 | CN(C)c1ccc(C(=O)OCC(=O)c2cccs2)cc1 | inactive | 
34 | Cc1nn(-c2ccc(F)cc2)c2nc(N)c(C#N)c(-c3cccs3)c12 | inconclusive: 16.4 µM [cytotoxic, single point] | 
35 | COc1ccc(NC(=O)CSc2n[nH]c(-c3ccncc3)n2)cc1Cl | inconclusive: 29.1 µM [rising, single point] | 
36 | NS(=O)(=O)c1ccc(CCNC(=O)c2nc(CS(=O)(=O)c3ccc(Cl)cc3)no2)cc1 | inconclusive: 29.1 µM [rising, single point] | 
37 | CCN1CCN(C(=O)CN2C(=O)c3ccccc3S2(=O)=O)CC1 | inactive | 
38 | Cc1ccc(S(=O)(=O)N(C)c2ccc(C)c([N+](=O)[O-])c2)cc1 | inconclusive: 20.6 µM [cytotoxic, single point] | 
39 | N#Cc1ccc(CN(Nc2ccccc2)c2ccccc2)cc1 | inconclusive: 16.4 µM [cytotoxic, single point] | 
40 | COc1ccc(NC(=O)c2ccc(NC(=O)CN3CCN(c4ccccc4OC)CC3)cc2)cc1 | inconclusive: 5.17 µM [cytotoxic, partial curve] | 
41 | O=C(Nc1ccnc(-c2cccnc2)n1)c1ccccc1Cl | inconclusive: 16.4 µM [cytotoxic, single point] | 
42 | CCN(CC)C(=O)c1cc(-c2ccc(Br)cc2)on1 | active: 5.17 µM | 
43 | CCCNC(=O)c1cc2c(c(-c3cccc(-c4cc5ccccc5o4)c3)n1)[C@H](CCO)N(C(=O)NC(C)C)C2 | inconclusive: 20.6 µM [cytotoxic, single point] | 
44 | CCOc1ccc(NC(=O)c2cc([N+](=O)[O-])ccc2N2CCOCC2)cc1 | active: 23.1 µM | 
45 | Cc1ccc(-n2nc(C)c3c(C)c(CCC(=O)NC(C)c4ccccc4)c(C)nc32)cc1 (stereo unspecified) | inactive | 
46 | Oc1c(Br)cc(Cl)cc1C=Nc1ccccc1Br | inconclusive: 18.4 µM [cytotoxic, partial curve, poor fit] | 
47 | COc1ccc(OC)c(S(=O)(=O)N2CCN3CCCC3C2)c1 (stereo unspecified) | inactive | 
48 | O=C(O)c1cnn2c1C(=O)N(Cc1cccs1)CC2 | inconclusive: 20.6 µM [rising, single point] | 

Row | SMILES | Potency | activity change, negative = cytotoxicity
49 | O=c1c2cc(Br)ccc2[nH]c(=S)n1Cc1ccccc1 | inactive | 
50 | O=C(/C=C/[C@H]1O[C@@H](n2cnc3c(NC(=O)c4ccccc4)ncnc32)[C@H](O)[C@@H]1O)NCCc1ccc(F)cc1 | inactive | 
51 | COc1cccc(C(=O)/C=C/Nc2ccc(S(=O)(=O)Nc3nc(C)cc(C)n3)cc2)c1 | inactive | 
52 | Oc1cccnc1SCc1ccccc1 | inactive | 
53 | Cc1ccc(CNC(=O)c2ccc(CSc3nc4ccncc4n3Cc3ccc(C)cc3)cc2)cc1 | inconclusive: 20.6 µM [cytotoxic, single point] | 
54 | CCOC(=O)C1(CC2CCCCO2)CCN(S(=O)(=O)c2cc(C)cs2)CC1 (stereo unspecified) | inconclusive: 29.1 µM [cytotoxic, single point] | 
55 | COc1ccc(C(=O)NCC(=O)OCC(=O)N2CCC(C)CC2)cc1OC | inactive | 
56 | Cn1ccsc1=NC(=O)c1ccc([N+](=O)[O-])o1 | inconclusive: 16.4 µM [cytotoxic, single point] | 
57 | COC(=O)C1=C(C)N(Cc2ccccc2)C(=NCC(C)C)N[C@H]1c1cccc(C(F)(F)F)c1 | inconclusive: 20.6 µM [cytotoxic, single point] | 
58 | COc1cccc(C(=O)Nc2ccc3nc(SCC(=O)N(C)c4ccccc4)sc3c2)c1 | inconclusive: 11.6 µM [cytotoxic, partial curve, poor fit] | 
59 | COc1ccc(NC(=O)CC(NC(C)c2ccccc2)C(=O)O)cc1 (stereo unspecified) |  | inconclusive: 38.5%
60 | CCSc1nsc(SCC)c1C(N)=O | inconclusive: 20.6 µM [cytotoxic, single point] | 
61 | CCn1ncc(C2=NOC(C(=O)NCCc3ccccc3)C2)c1C (stereo unspecified) | inconclusive: 20.6 µM [cytotoxic, partial curve, poor fit] | 
62 | Cc1cc(C)n(-c2cc(N3CCN(S(=O)(=O)c4ccc(C)c(C)c4)CC3)ccc2[N+](=O)[O-])n1 | inactive | 
63 | Cc1ccc(CNC(=O)CN2C(=O)CSc3ccc(S(=O)(=O)N4CCCCC4)cc32)cc1 | inactive | 
64 | Cc1sc2ncnc(N3CCC(C(=O)NNC(=O)COc4cccc(C(F)(F)F)c4)CC3)c2c1C | inactive | 
65 | O=C(NCc1ccccc1)c1ccc(NC(=O)C2CCCO2)cc1 (stereo unspecified) | inactive | 
66 | O=c1[nH]c(C2CCN(S(=O)(=O)c3ccccc3)CC2)nc2c1nnn2Cc1cccc(Cl)c1 | inactive | 
67 | CCOc1ccc(-c2cc(NC(=O)c3ccccc3)c(C(=O)OC)s2)cc1 | inactive | 
68 | COc1ccc(S(=O)(=O)Oc2ccc3cccc(N)c3c2)cc1 | inconclusive: 7.31 µM [cytotoxic, partial curve, poor fit] | 
69 | COc1ccc(-c2c(C(=O)c3ccccc3)[nH]c(N)c2C(=O)c2ccccc2)cc1OC | inconclusive: 16.4 µM [cytotoxic, partial curve, poor fit] | 
70 | COc1ccc(CC(N)c2csc(NC(=O)c3ccc(OC)cc3)n2)cc1 (stereo unspecified) | inactive | 
71 | O=C(c1cnn(-c2ccccc2)c1)c1cc(Br)ccc1O | inconclusive: 14.6 µM [cytotoxic, partial curve, poor fit] | 
